# Data: patent US11446314B2, “Immunoablative therapies” (AVM Biotechnology LLC, priority 2018, dated 2022)
# Key:
# [1] = tested on: peripheral blood lymphocytes; details: same dosing; control 1153
# marginal zone = details: rats, 12.9 mg/kg HED, 48 hours
# germinal centers = details: rats, 12.9 mg/kg HED, 48 hours
# [2] = tested on: multiple myeloma and other cancer cell lines
# spleen cellularity = details: IP 10 mg/kg (HED 0.81 mg/kg) on day −6, −4, −2 before ACT; cited from earlier work
compound,measurement,setting,value
C[C@@H]1C[C@H]2[C@@H]3CCC4=CC(=O)C=C[C@]4(C)[C@@]3(F)[C@@H](O)C[C@]2(C)[C@@]1(O)C(=O)CO [dexamethasone],natural killer (NK) cells,[1],958 live events
same,marginal zone inhibition,marginal zone,maximally inhibited
same,germinal center inhibition,germinal centers,maximally inhibited
same,direct tumor killing,[2]; about 1.6 mg/kg HED in a 48 hour period,about 50%
same,direct tumor killing at higher doses,[2]; doses up to about 12 mg/kg HED,maintained but not increased
same,enhancement of ACT tumor killing,spleen cellularity,did not enhance ACT tumor killing
